These are yes or no findings as the source states them, for the method shown. In cells and extracts the contact can be indirect. A yes stands for co-enrichment or nearness to the bait. Other partners may have been found. Tags and fused reporters may be left off the sequences shown.
T1: GFP-VAMP721 (VESICLE-ASSOCIATED MEMBRANE PROTEIN 721) (Arabidopsis thaliana) (UniProt Q9ZTW3)
T1 sequence: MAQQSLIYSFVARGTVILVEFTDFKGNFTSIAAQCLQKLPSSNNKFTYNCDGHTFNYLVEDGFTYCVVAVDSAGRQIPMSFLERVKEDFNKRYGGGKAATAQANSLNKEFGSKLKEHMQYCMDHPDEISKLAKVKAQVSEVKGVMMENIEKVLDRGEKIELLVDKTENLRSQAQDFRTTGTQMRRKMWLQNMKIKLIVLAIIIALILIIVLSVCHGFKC


These binders were tested against T1, GFP-VAMP721 (VESICLE-ASSOCIATED MEMBRANE PROTEIN 721) (Arabidopsis thaliana) (assay: affinity purification with mass spectrometry).

Binder | binding
NPSN11 (protein, UniProt Q944A9 1-265) MDPISAVSEELAEIEGQINDIFRALSNGFQKLEKIKDANRQSRQLEELTDKMRDCKSLIKDFDREIKSLESGNDASTNRMLNDRRQSMVKELNSYVALKKKYSSNLASNNKRVDLFDGPGEEHMEENVLLASNMSNQELMDKGNSMMDDTDQAIERGKKIVQETINVGTDTSAALKAQTEQMSRVVNELDSIHFSLKKASKLVKEIGRQVATDKCIMAFLFLIVIGVIAIIIVKIVNPNNKDIRDIPGVGLAPPAMNRRLLWNHY | binds
SYP61 (protein, UniProt Q946Y7 1-245) MSSAQDPFYIVKEEIQDSIDKLQSTFHKWERISPDMGDQAHVAKELVATCGSIEWQVDELEKAITVAAKDPSWYGIDEAELEKRRRWTSNARTQVRNVKSGVLAGKVSSGAGHASEVRRELMRMPNSGEASRYDQYGGRDDDGFVQSESDRQMLLIKQQDEELDELSKSVQRIGGVGLTIHDELVAQERIIDELDTEMDSTKNRLEFVQKKVGMVMKKAGAKGQMMMICFLLVLFIILFVLVFLT | binds
NPSN12 (protein, UniProt Q9LNH6 1-265) MASELPMSPHLEQIHGEIRDHFRALANGFQRLDKIKDSSRQSKQLEELAEKMRDCKRLVKEFDRELKDGEARNSPQVNKQLNDEKQSMIKELNSYVALRKTYLNTLGNKKVELFDTGAGVSGEPTAEENVQMASTMSNQELVDAGMKRMDETDQAIERSKQVVHQTLEVGTQTASNLKGQTDQMGRVVNDLDTIQFSLKKASQLVKEIGRQVATDKCIMAFLFLIVCGVIAIIIVKIVNPNNKDIRDIPGLAPPAQSRKLLYFRE | binds

Next, values leading:

binding | Binder
binds | VTI12 (protein, UniProt Q9SEL5 1-222) MSDVFEGYERQYCELSTNLSRKCHSASVLSNGEEKKGKIAEIKSGIDEADVLIRKMDLEARSLQPSAKAVCLSKLREYKSDLNQLKKEFKRVSSADAKPSSREELMESGMADLHAVSADQRGRLAMSVERLDQSSDRIRESRRLMLETEEVGISIVQDLSQQRQTLLHAHNKLHGVDDAIDKSKKVLTAMSRRMTRNKWIITSVIVALVLAIILIISYKLSH
binds | SNAP33 (protein, UniProt Q9S7P9 1-300) MFGLRKSPANLPKHNSVDLKSSKPNPFDSDDESDNKHTLNPSKRTTSEPSLADMTNPFGGERVQKGDSSSSKQSLFSNSKYQYKNNFRDSGGIENQSVQELEGYAVYKAEETTKSVQGCLKVAEDIRSDATRTLVMLHDQGEQITRTHHKAVEIDHDLSRGEKLLGSLGGMFSKTWKPKKTRPINGPVVTRDDSPTRRVNHLEKREKLGLNSAPRGQSRTREPLPESADAYQRVEMEKAKQDDGLSDLSDILGELKNMAVDMGSEIEKQNKGLDHLHDDVDELNFRVQQSNQRGRRLLGK

Reference: doi:10.1101/2023.03.18.533296
